Among the data in paper PMC7494117 are binding values, retold here.

Amino acid sequences for entries named in this document (tags omitted).
UniProt P15682: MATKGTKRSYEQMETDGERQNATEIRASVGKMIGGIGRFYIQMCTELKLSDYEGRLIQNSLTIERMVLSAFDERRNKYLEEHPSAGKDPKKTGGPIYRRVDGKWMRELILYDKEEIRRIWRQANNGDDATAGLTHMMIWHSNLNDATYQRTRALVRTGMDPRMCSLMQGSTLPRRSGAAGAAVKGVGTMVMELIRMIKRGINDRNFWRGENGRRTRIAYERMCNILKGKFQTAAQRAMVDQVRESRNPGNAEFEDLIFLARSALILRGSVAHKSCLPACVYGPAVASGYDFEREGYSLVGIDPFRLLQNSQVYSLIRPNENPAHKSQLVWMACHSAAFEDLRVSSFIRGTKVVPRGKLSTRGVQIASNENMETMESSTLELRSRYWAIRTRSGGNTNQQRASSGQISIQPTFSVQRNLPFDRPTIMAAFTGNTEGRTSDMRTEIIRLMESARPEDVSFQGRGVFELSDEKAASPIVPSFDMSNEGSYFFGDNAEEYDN
UniProt P03430: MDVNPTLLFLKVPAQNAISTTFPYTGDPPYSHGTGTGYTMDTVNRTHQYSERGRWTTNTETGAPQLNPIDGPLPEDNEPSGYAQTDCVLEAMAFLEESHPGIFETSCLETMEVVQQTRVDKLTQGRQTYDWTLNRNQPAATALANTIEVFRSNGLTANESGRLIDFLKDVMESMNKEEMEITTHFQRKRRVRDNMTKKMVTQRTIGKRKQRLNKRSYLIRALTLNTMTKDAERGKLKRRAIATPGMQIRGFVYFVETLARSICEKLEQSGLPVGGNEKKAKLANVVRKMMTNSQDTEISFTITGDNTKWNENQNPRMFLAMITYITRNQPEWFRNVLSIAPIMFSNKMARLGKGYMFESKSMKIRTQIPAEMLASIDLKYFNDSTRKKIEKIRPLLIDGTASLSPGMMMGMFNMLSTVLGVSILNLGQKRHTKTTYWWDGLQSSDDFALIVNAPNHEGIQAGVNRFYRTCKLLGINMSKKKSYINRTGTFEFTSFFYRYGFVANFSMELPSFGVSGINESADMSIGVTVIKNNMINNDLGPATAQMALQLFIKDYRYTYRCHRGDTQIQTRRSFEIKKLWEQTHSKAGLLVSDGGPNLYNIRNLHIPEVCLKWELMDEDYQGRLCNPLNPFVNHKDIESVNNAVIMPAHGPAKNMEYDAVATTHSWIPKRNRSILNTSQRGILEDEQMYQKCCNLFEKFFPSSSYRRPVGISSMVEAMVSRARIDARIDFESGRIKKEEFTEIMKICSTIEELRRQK

The target of the assay is nucleoprotein NP (A/WSN/1933) (influenza A virus A/WSN/1933) (UniProt P15682). In words: co-IP.

Results are given in words; binding and its absence hold for the method and conditions named. Binding seen in cells or lysates may run through a third protein. Some entries that bind do so weakly or less than the wild type.

Regarding “FLAG-tagged PB1 (wild type, A/WSN/1933) (from UniProt P03430 1-757)”, the binding result is given as “binds”.
